Here are results for two molecules from PMC9606255.

The chains behind the UniProt entries cited, without tags or fusion partners. Where a name states a change or a piece, a line headed by the entry shows the natural chain unless it says otherwise.
UniProt Q9C0C2: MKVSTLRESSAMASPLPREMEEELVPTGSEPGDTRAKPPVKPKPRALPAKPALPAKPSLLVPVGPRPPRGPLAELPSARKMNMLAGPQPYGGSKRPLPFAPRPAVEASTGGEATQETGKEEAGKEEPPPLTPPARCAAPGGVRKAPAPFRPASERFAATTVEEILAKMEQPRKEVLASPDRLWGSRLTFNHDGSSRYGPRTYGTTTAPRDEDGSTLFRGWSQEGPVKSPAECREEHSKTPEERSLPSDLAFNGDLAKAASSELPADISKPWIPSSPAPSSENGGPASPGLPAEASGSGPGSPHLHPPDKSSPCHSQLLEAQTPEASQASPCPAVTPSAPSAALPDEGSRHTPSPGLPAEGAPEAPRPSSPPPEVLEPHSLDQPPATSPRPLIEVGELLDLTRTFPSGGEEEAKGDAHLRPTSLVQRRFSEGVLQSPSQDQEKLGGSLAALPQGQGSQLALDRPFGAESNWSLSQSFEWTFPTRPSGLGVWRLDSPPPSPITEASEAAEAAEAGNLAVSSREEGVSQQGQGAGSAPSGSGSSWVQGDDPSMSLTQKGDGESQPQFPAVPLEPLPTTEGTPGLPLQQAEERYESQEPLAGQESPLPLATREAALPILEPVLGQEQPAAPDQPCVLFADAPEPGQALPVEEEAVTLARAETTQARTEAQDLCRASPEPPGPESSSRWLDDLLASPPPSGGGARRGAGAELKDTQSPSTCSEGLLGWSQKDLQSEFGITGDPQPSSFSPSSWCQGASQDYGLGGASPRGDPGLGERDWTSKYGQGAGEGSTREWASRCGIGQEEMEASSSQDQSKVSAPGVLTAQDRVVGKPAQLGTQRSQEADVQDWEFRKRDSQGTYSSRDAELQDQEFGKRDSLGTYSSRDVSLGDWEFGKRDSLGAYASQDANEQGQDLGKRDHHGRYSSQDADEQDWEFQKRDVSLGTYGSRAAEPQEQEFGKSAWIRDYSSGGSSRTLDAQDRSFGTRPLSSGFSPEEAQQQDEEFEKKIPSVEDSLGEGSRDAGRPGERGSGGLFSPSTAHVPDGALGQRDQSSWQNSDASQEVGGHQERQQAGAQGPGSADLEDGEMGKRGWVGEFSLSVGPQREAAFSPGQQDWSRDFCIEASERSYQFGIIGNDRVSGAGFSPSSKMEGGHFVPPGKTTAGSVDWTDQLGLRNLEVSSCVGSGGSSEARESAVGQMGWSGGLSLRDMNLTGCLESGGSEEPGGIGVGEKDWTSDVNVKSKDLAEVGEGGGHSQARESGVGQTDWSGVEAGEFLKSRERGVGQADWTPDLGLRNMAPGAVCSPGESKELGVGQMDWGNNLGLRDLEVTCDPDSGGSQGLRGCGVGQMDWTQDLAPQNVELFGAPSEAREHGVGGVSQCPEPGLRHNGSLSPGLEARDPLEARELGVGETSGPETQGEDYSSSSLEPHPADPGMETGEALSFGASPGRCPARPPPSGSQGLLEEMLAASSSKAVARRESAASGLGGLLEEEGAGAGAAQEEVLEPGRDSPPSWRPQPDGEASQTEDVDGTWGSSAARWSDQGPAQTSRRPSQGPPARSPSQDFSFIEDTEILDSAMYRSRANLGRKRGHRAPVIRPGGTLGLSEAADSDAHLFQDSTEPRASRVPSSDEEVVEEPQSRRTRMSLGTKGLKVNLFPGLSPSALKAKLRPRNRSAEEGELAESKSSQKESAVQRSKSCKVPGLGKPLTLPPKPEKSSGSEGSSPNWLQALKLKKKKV

Targets include Flag-TAB182-WT (human) (UniProt Q9C0C2); Flag-TAB182-Δ1 (human) (UniProt Q9C0C2); Flag-TAB182-Δ2 (human) (UniProt Q9C0C2).
Holding throughout (experiment): co-IP; HEK293T (legend: HEK293) cells transfected with Flag-TAB182 and HA-FHL2 plasmids (wild type or mutants) for 48 h, co-IP and western blot

These are yes or no findings as the source states them, for the method shown. In cells and extracts the contact can be indirect. For part of these data: Binding can be weak; no strength is given. For part of these data: Tags and fused reporters may be left off the sequences shown.

As for FHL2-Δ2 (from UniProt Q14192), the binding result with Flag-TAB182-WT (human) was “no binding”.

B1: HA-FHL2 (protein, UniProt Q14192 1-279)
chain: MTERFDCHHCNESLFGKKYILREESPYCVVCFETLFANTCEECGKPIGCDCKDLSYKDRHWHEACFHCSQCRNSLVDKPFAAKEDQLLCTDCYSNEYSSKCQECKKTIMPGTRKMEYKGSSWHETCFICHRCQQPIGTKSFIPKDNQNFCVPCYEKQHAMQCVQCKKPITTGGVTYREQPWHKECFVCTACRKQLSGQRFTARDDFAYCLNCFCDLYAKKCAGCTNPISGLGGTKYISFEERQWHNDCFNCKKCSLSLVGRGFLTERDDILCPDCGKDI
Turning to B1, the binding result with Flag-TAB182-Δ1 (human) was “no binding”; in the experiment with Flag-TAB182-Δ2 (human), “binds”.
